Results as given in patent US6794126B2, “Methods for preventing or inhibiting neuronal cell death” (The Trustees of Columbia University in the City of New York, priority 1996, dated 2004).
Some results were stated once for a whole list of compounds, not compound by compound.

Tested on: sympathetic neurons
Assay: Survival of sympathetic neurons treated with AraC
Assay type: cell-based
Conditions: AraC 100 μM; almost all control neurons dead
Description: A mixture of uridine and 5-fluorodeoxyuridine (10 mM each) was also added to eliminate non-neuronal cells on day two. No pretreatment with survival agent, unless otherwise noted, was necessary for effective survival of neurons exposed to AraC. In the case of UV irradiation, the neurons died quite rapidly. Accordingly, neuronal cultures were pretreated overnight (18 hr) with survival-promoting agents prior to UV irradiation. […] All experimental points are expressed relative to the original number of neurons present in each well and are reported as mean+/−SEM (n=3).

Structure (SMILES)	treated neurons surviving up to five days of AraC exposure
Cn1cnc2c(NCc3ccccc3)nc(NCCO)nc21 [olomoucine, 2-(2-hydroxyethylamino)-6-benzylamino-9-methylpurine]	80-100%
CN1CC[C@H](c2c(O)cc(O)c3c(=O)cc(-c4ccccc4Cl)oc23)[C@H](O)C1 [flavopiridol]	80-100%
